Source: PubChem BioAssay AID1508600 (Functional Genomics Laboratory (NCATS/FGL), 2020)
Out of some 53,000 sequences screened, about 3,700 (7%) were called active.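 Rule for the calls: active = gene knockdowns whose robust z-score for IL-1 alpha signal is at least 2 or at most -2, so actives lie on both sides; inactive = the rest.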 The list shows a part of the results.

experiment: Components of the Cytosolic LPS Sensing Pathway: Gene Identification via Genome-wide siRNA Screen; details: RAW264.7 macrophages, IL-1a HTRF, actives lie on both sides, screened at 100 nM (by protocol), cells primed 5 h with Pam3CSK4 first;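 note: robust z of the log signal after scaling to non-targeting control siRNA wells of the plate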
Procedure, shortened: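 Read-out: IL-1a HTRF on supernatant, divided by plate negative-control median ×100, log-transformed and converted to robust z-score. Cells were RAW264.7 given 100 nM siRNA, Pam3CSK4-primed 5 hours, then LipidA-transfected 24 hour.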

Sequence	z-score
GGCCAAGGUGAGAGUACUGTT against Hsd3b5	inactive: 0.23
CCUAUAAUCCCAGAGAAAATT against Cobll1	inactive: 0.558
GGAGGGAGUCUCUGUUACUTT against Pus10	inactive: 0.513
GGCUCUGUCUCUUAAUGGGTT against Gpx5	inactive: 0.53
GCCCAGUACAACCCUCCUATT against Fbxw19	inactive: 0.0161
GCACAAUUUCGUGUGAGCUTT against Sfxn5	inactive: 0.643
GGUGGAUACACAGGACAAATT against Invs	inactive: 1.58
GGACGAACUCAUCAACAGUTT against Gtf2ird1	inactive: -0.00436
CGCAAUAAAGAAUUCUCCCTT against Rex1bd	inactive: -1.75
GGAGCCAGUGACAAUAAAUTT against Mtag2	inactive: -1.1
CGCCUUUUGGAAUAUUUCATT against Mblac2	inactive: -0.352
GGUCUCCACUGAGGACUGUTT against Ndufa2	inactive: 0.284
GGAGCUGUACGGCAAGAUCTT against Gipc1	inactive: 0.477
CCUGGAGGUGACCGCUUUATT against Cdc20	inactive: -0.221
GGUCUUCCUAAGAGAGACATT against Slc51b	inactive: -1.03
GAUUGUGGACUUAAGGAUUTT against Vmn1r75	inactive: 0.773
GGACCUGGAGCUGAGAAGATT against Rpap3	inactive: 0.181
GCUGGUAGCAUUCUUAUCCTT against Xylt2	inactive: 0.529
UAUUAAACUCUUGAGACCGTT against Oxa1l	inactive: -0.571
GGACAGUGUCUAGAUAUUGTT against Fbln5	inactive: -1.18
CCUGCUGCUUAUUAAAGUUTT against Bckdk	inactive: -0.308
GCUGAAAACACACCUAGCATT against Gin1	inactive: 1.19
GGUGGAUAGAGCAAUUGAATT against Jph1	inactive: 1.5

Sequence	z-score
GCUCGAUCAUGGGCCUAUATT against Crls1	inactive: -0.189
GGUUCGUGUGGUUUAACAUTT against Afg3l1	inactive: 1.55
CGUGUUAUGACAAAAGAGGTT against Defb39	inactive: 0.206
GGGAAAAAGAUGCAAGUAUTT against Ctnnbip1	inactive: 0.623
GAGGCUCUGUGGAAUUUUATT against Olfr1217	inactive: 1.1
GGAAAUACUCAUCAAGUCUTT against Phldb2	inactive: -1.33
GGUCAUCGAUCACAUUGAUTT against Thbs4	inactive: 0.197
GGAUAAGUACACGCUUCCCTT against Sox2	inactive: 0.657
GGUCAAUCAUUUCUAUGUUTT against Pdcd6	inactive: -1.1
UGAUGAUGGGUGUGGUUGUTT against Olfr887	inactive: -1.53
GCAUCGACAACCUCUCUAGTT against Hba-x	active: 3.15
GGAGAUGACUGAUUUGAAGTT against Ccnb3	inactive: -0.109
GGAAUUCACAGAUACCGUGTT against Guca1a	inactive: 0.93
GGUUAUUCAGCUCCUUAAATT against Paxip1	inactive: 0.978
GGAGAAUGGCCACGUAAAATT against Marcks	inactive: 0.294
GGAUAACCCUGUAAUGAUATT against Dctn4	inactive: -0.0106
GGCUGAUGCAGACAGUUUCTT against Brap	inactive: -0.655
GGACCUUUGUUGUCAGUCATT against Zfp319	inactive: -1.79
GGAGGACAAGGAGGAUGACTT against Samd10	inactive: 0.324
CCGAGUUCCUUCAACAUGCTT against Hoxb7	inactive: -0.105
GCGGUAUCCUAGCUGUGAATT against Brsk1	inactive: -0.0667
GGUGGCACGAUGCUAUGUUTT against Hcar2	inactive: -0.981
GCAUGAGUUAGACCAUAAUTT against Phf12	active: -2.59

Some values from the list:
Value of GGUUCGUGUGGUUUAACAUTT against Afg3l1 under z-score: inactive: 1.55
Value of GGUUAUUCAGCUCCUUAAATT against Paxip1 under z-score: inactive: 0.978
Value of GGAUAAGUACACGCUUCCCTT against Sox2 under z-score: inactive: 0.657
Value of GGUGGCACGAUGCUAUGUUTT against Hcar2 under z-score: inactive: -0.981

More results:

Sequence	z-score
GGUUUUCCGGACCAAAAUUTT against Rasa3	inactive: 0.466
GGUCUCUCGGACUUUUUCCTT against Adipor1	inactive: -0.765
GGAAGUGUUGGCUAUUUUUTT against Kctd10	inactive: 1.04
GCUUUUUAUCCGUGUCGAUTT against 4930474N05Rik	inactive: 0.501
GGAGGAGUGUUGUAUCUGCTT against Rnf141	inactive: 1.17
GGAGUAAACGACAAAAUGGTT against Gosr1	inactive: 0.172
CCUACUAAAGGUGAUCUGATT against Mtmr10	inactive: -1.35
GGAGAGAGUGCAUCUAUAATT against Gdi2	inactive: 0.184
CGACGAAGAUUCUGACAAUTT against Gpr153	inactive: -0.217
CGUUGGUACCAAGAAGUACTT against Snai3	inactive: -0.99
GGUCCAAAAGUGACAUAUATT against Ddx4	inactive: -1.51
GCCAUAUCUGUCCAAGUUATT against Sdf2l1	inactive: -1.4
GAGCCACUUUCUCAAGUGUTT against Pou3f1	active: 3.02
GGUGAACUGUCAUAACUGGTT against Synj2	inactive: 1.48
CGAACAGAUGCUUAAUGUCTT against Tubb4b	inactive: 1.28
GCCCGCAUUUUGGAAACUCTT against Lmbr1	inactive: -0.462
UUUCGAGCUGAUCCAUGAGTT against Tbata	inactive: 1.19
GGCUGAACUUCUUUCCAAGTT against Cd209b	inactive: 1.41
GGACAUUUGACACACAACATT against Scyl3	inactive: -0.959
GCCCUGCUUCAUAUGGAAUTT against Elf2	inactive: 0.963
CCACAACAACAGGAGUACUTT against Nedd4l	inactive: 0.695
GGUUCCUUAAUUUAUUGCCTT against Fbxl22	active: 2.31
GGAAAGGAAAUCAAGGAUUTT against Gngt2	inactive: -1
